This data set is described as follows: Boc solid-phase peptide synthesis; MBHA resin; carbodiimides such as N,N'-diisopropyl carbodiimide. The conditions noted are these: whole synthesis, HPLC.

Here are results for 1 substance from EP0369664B1 (THE SALK INSTITUTE FOR BIOLOGICAL STUDIES, priority 1988, dated 1994).

HELM strings list residues between dots; [ac] is acetyl, [am] amide, other brackets name non-standard units.

Take “PEPTIDE1{S.E.E.P.P.I.S.L.D.L.T.F.H.L.L.R.E.V.L.E.M.A.R.A.E.Q.L.A.Q.Q.A.H.S.N.R.K.M.M.E.I.F.[am]}$$$$V2.0”: the “final purity (method not given)” value is “about 95%”.
